Source: paper PMC5216755
No constants are given. Whether binding was seen depends on the method and setting. Binding seen in cells or lysates may run through a third protein. Some binding calls cover weakened binding; strength is not graded here. For some assays here: Tags and fused reporters may be left off the sequences shown.

Sequences of proteins named here, by UniProt entry; tags and fusion partners are left off.
UniProt P35637: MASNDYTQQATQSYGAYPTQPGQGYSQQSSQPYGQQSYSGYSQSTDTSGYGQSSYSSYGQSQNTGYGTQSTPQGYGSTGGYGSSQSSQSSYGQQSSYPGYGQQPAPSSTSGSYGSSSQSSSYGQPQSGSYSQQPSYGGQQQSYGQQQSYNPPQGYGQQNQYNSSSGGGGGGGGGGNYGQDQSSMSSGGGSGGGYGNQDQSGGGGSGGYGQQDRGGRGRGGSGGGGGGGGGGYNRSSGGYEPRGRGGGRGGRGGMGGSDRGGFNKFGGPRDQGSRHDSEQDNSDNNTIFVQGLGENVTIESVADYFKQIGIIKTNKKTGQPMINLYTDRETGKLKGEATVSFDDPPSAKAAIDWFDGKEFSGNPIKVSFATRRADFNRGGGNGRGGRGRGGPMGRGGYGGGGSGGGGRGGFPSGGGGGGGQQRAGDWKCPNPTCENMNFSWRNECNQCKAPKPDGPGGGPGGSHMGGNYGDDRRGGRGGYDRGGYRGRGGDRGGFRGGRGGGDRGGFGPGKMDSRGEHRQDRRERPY
UniProt Q9C0K0: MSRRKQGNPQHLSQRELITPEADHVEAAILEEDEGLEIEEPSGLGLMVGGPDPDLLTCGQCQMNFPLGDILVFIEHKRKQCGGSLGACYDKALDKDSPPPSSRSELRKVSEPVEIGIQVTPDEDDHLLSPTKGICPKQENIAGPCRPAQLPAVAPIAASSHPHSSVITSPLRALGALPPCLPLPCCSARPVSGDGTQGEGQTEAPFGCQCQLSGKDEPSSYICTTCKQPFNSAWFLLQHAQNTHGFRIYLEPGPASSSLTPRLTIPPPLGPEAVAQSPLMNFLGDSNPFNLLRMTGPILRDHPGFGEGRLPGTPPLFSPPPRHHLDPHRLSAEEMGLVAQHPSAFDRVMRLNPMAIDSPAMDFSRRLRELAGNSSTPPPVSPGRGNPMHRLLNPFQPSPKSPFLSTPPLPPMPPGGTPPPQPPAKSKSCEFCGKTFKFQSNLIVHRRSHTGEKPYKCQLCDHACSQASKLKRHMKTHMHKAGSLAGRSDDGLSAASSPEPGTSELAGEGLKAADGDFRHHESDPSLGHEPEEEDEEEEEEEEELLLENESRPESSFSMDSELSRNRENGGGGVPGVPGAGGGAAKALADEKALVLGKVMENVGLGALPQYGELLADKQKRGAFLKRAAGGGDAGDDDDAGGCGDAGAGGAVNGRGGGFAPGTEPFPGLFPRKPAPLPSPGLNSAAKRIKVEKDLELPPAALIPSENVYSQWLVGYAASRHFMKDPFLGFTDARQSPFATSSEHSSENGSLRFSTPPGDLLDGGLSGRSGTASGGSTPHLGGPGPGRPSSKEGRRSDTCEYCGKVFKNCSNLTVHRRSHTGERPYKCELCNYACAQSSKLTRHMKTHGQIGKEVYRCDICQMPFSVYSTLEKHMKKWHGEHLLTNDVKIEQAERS
UniProt Q15208: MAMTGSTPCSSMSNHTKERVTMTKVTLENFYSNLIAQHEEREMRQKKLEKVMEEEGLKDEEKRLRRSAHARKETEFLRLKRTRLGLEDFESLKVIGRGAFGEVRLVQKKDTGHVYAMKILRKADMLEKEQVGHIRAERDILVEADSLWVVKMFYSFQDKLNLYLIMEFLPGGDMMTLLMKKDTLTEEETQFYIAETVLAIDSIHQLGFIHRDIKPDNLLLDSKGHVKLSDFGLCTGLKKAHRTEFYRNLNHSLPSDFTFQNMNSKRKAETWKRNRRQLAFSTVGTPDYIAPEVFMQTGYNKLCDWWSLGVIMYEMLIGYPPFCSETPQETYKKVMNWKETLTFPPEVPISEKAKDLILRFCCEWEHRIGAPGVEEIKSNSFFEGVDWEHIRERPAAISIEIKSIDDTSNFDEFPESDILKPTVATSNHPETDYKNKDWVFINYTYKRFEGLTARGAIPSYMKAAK
UniProt Q16666: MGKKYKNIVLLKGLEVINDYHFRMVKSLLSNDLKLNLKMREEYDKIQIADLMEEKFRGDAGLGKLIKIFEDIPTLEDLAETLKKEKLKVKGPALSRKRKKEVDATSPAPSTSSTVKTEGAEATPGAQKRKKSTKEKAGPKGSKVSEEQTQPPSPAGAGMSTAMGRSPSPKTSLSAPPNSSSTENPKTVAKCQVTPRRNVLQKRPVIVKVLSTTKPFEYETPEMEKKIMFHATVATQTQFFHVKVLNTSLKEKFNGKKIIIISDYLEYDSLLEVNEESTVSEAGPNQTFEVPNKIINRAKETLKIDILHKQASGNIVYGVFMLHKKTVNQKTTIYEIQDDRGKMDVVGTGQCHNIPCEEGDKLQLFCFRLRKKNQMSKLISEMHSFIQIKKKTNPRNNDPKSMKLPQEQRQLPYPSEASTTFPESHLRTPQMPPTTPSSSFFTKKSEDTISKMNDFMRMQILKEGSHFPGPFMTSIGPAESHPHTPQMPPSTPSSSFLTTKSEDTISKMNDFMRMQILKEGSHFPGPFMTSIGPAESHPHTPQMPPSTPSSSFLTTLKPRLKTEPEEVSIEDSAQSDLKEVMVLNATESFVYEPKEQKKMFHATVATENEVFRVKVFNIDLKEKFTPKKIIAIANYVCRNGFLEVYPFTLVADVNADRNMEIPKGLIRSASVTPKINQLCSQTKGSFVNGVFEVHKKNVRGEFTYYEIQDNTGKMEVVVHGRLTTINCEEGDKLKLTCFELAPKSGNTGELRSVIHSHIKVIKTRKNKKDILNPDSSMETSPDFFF
UniProt P49841: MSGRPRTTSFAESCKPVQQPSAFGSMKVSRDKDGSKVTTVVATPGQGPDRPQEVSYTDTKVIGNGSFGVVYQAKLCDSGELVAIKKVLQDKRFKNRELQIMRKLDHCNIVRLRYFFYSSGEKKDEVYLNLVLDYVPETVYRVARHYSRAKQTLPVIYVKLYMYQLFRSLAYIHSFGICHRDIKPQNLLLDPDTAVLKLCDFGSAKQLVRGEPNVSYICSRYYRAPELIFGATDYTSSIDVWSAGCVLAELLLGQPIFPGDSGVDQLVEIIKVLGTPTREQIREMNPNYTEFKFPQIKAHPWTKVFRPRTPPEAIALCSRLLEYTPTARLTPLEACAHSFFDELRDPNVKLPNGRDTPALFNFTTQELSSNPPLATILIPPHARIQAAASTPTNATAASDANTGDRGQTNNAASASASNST
UniProt O60884: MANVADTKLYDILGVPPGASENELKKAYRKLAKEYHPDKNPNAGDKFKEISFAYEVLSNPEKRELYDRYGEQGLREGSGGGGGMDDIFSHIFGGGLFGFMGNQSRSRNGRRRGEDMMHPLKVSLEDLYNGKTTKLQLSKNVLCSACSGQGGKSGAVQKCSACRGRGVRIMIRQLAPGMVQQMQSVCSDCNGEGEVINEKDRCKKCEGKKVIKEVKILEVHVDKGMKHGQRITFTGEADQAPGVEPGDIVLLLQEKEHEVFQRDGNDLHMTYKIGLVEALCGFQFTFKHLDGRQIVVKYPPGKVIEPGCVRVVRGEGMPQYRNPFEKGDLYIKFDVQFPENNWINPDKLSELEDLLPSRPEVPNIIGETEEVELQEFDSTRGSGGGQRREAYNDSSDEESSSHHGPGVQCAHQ
UniProt P52732: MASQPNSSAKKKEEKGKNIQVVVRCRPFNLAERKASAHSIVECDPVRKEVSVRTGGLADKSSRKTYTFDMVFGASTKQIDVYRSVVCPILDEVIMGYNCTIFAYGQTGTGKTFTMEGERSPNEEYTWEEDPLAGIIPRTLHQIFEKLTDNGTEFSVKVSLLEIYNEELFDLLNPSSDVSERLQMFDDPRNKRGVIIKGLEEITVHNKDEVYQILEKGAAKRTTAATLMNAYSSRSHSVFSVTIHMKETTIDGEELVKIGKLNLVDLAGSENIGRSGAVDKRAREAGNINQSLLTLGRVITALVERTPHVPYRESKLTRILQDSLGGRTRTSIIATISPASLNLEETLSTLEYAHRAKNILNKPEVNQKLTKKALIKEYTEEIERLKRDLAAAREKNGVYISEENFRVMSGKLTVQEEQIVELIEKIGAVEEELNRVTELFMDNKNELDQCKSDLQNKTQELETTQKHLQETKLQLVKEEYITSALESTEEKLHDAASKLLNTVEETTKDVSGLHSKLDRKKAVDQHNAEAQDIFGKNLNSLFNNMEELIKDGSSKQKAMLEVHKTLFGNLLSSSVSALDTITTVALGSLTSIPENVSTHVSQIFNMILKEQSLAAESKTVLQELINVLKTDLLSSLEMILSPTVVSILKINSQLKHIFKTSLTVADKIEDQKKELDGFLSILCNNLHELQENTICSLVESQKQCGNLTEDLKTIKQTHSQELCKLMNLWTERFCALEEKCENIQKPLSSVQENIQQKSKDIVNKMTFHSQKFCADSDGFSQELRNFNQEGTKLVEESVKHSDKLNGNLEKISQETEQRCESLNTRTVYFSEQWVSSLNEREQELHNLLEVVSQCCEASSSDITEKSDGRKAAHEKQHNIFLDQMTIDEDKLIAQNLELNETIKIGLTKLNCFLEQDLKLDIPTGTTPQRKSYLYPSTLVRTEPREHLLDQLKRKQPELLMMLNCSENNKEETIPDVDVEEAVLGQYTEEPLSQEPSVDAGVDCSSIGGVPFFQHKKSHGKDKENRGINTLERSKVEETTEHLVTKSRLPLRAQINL

What was measured:
[1] = target: FLAG/HA epitope-tagged PPP3CA constitutively active mutant (F/H-PPP3CA*), transfected in HEK 293T cells (human) (UniProt Q08209); assay: co-IP; HEK 293T co-transfected with F/H-PPP3CA* and each partner; PPP3CA* immunoprecipitated with anti-FLAG or anti-HA beads overnight at 4°C in CO-IP buffer (50 mM Tris-HCl pH 7.9, 150 mM NaCl, 1 mM EDTA, 0.1% NP-40); partner detected by blot of its tag
[2] = target: FLAG/HA epitope-tagged PPP3CA constitutively active mutant (F/H-PPP3CA*), stably expressed in Jurkat cells (human) (UniProt Q08209); assay: co-IP; F/H-PPP3CA*-expressing or mock-transduced Jurkat cells; IP anti-FLAG; immunoblot of endogenous partners
[3] = target: PPP3CA (endogenous, Jurkat T-ALL cells) (human (endogenous in Jurkat)) (UniProt Q08209); assay: co-IP; endogenous PPP3CA immunoprecipitated from Jurkat lysates (RIPA lysis, diluted 1:3 with CO-IP buffer) with a mouse antibody against PPP3CA or irrelevant mouse Ig; basal conditions and after 1 h ionomycin, cyclosporin A or vehicle; immunoblot of endogenous partners
[4] = target: T1, FLAG-HA-Histidine tagged (F/H-His) PRDX1, transfected in HEK 293T (UniProt Q06830); assay: pull-down; HEK 293T co-transfected with F/H-PPP3CA* and a His-tagged partner; His-pulldown on HisPur Cobalt resin overnight at 4°C in TEN buffer (20 mM Tris-HCl pH 7.5, 150 mM NaCl, 5 mM MgCl2, 0.1% NP-40, 10 mM imidazole, 10% glycerol); PPP3CA* detected by blot
T1 sequence: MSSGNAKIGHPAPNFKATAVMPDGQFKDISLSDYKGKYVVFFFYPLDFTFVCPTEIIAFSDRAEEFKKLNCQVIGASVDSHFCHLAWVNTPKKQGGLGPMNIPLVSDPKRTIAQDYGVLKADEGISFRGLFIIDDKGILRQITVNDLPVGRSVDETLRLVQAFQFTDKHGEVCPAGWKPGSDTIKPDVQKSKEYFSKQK

[5] = target: FLAG-HA-Histidine tagged (F/H-His) hnRNPU, transfected in HEK 293T (UniProt Q00839); assay: as above
[6] = target: T2, His-tagged GFP-KHSRP, transfected in HEK 293T (UniProt Q92945); assay: as above
T2 sequence: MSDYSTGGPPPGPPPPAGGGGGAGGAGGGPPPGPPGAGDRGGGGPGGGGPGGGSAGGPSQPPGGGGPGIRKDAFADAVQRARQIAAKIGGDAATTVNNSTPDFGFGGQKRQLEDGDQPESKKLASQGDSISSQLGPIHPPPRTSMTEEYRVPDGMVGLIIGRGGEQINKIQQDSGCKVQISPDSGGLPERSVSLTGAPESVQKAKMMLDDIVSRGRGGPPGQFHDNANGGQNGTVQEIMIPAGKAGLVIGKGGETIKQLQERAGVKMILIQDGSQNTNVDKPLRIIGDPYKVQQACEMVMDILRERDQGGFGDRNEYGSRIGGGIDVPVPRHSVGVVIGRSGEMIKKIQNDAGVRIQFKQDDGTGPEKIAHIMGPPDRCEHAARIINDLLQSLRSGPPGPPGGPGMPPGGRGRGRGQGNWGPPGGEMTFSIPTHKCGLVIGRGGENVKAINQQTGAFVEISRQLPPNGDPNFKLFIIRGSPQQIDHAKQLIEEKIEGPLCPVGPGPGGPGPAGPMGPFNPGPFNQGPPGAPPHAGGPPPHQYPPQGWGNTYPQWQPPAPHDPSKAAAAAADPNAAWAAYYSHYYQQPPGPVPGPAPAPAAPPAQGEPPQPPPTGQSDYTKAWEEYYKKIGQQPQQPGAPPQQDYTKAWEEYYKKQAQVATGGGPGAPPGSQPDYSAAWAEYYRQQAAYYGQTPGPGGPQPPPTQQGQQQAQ

binding [1] | Substance | further results
binds | FUS, V5-detected, transfected in HEK 293T (from UniProt P35637 1-526) | –
– | BCL11b (endogenous, Jurkat) (from UniProt Q9C0K0 1-894) | binding [2]: binds; binding [3]: binds
binds | STK38, FLAG-detected, transfected in HEK 293T (from UniProt Q15208 1-465) | –
binds | IFI-16, FLAG-detected, transfected in HEK 293T (from UniProt Q16666 1-785) | –
– | GSK3β (endogenous, Jurkat) (from UniProt P49841 1-420) | binding [2]: binds; binding [3]: binds
binds | FLNa, myc-detected, transfected in HEK 293T (from UniProt P21333 1-2647) | –
binds | DNAJA2, V5-detected, transfected in HEK 293T (from UniProt O60884 1-412) | –
binds | BCL11b, FLAG-detected, transfected in HEK 293T (from UniProt Q9C0K0 1-894) | –
binds | PRMT5, HA-detected, transfected in HEK 293T (from UniProt O14744 1-637) | –
– | NPM1 (endogenous, Jurkat) (from UniProt P06748 1-294) | binding [2]: binds
binds | HSPA8, V5-detected, transfected in HEK 293T (from UniProt P11142 1-646) | –
binds | GSK3β, HA-detected, transfected in HEK 293T (from UniProt P49841 1-420) | –
binds | KIF-11, HA-detected, transfected in HEK 293T (from UniProt P52732 1-1056) | –
binds | RBBP4, myc-detected, transfected in HEK 293T (from UniProt Q09028 1-425) | –
binds | NPM1, FLAG-detected, transfected in HEK 293T (from UniProt P06748 1-294) | –
– | FLAG/HA epitope-tagged PPP3CA constitutively active mutant (F/H-PPP3CA*), transfected in HEK 293T cells (from UniProt Q08209 1-390) (domain or fragment) | binding [4]: binds; binding [5]: binds; binding [6]: binds
